Measurements: PubChem BioAssay AID248 (DTP/NCI, 2004)
The list does not hold the whole screen: it gathers tests that were run many times, whatever their T/C, doses with no T/C, and many T/C values between a quarter and a half above the control. Further doses and runs are listed elsewhere. T/C: endpoint of the treated group in % of that of the vehicle group. Some entries give survivors of the animals treated and no T/C: the source files T/C as zero there, which appears to mark a toxic dose or a test without result, not a measured value. Some doses without a T/C left all or most animals alive at the check, yet need not have been tolerated: the source hardly ever lists a survival T/C far under the control, and the zero likely stands for such cases as well. Counts of survivors are from the toxicity check (mostly the fifth day) where no day follows; animals may have died later. Schedule codes are those of the source, taken here to give the interval after Q, in days (D) or hours (H), and the number of doses after X. Some doses were run more than once; their values stand side by side, smallest first. For survival time, the PubChem record calls one and a half times the control and up active, and a quarter to a half above the control has no call in these data; cut-offs in other NCI protocols can differ. Some T/C values are followed by the survivors on the day toxicity was checked, most often the fifth; where none is given, no animal had died by that day.

Tested on: L1210 leukemia ip in BDF1 mice, survival T/C
Assay: NCI In Vivo Anticancer Drug Screen. Data for tumor model L1210 Leukemia (intraperitoneal) in B6D2F1 (BDF1) mice
Settings: T/C endpoint: mean survival time, higher T/C = longer survival
[1] = dose: 400.0 mg/kg/injection, schedule: Q01DX009 (ip), vehicle: Klucel (hydroxypropylcellulose) (HPC)
[2] = dose: 100.0 mg/kg/injection, schedule: Q04DX003 (ip), vehicle: saline
[3] = dose: 200.0 mg/kg/injection, schedule: Q04DX003 (ip), vehicle: saline
[4] = dose: 400.0 mg/kg/injection, schedule: Q04DX003 (ip), vehicle: saline
[5] = dose: 200.0 mg/kg/injection, schedule: Q01DX009 (ip), vehicle: saline with Tween-80
[6] = dose: 100.0 mg/kg/injection, schedule: Q01DX009 (ip), vehicle: Klucel (hydroxypropylcellulose) (HPC)
[7] = dose: 200.0 mg/kg/injection, schedule: Q01DX009 (ip), vehicle: Klucel (hydroxypropylcellulose) (HPC)
[8] = dose: 180.0 mg/kg/injection, schedule: Q01DX009 (ip), vehicle: Klucel (hydroxypropylcellulose) (HPC)
[9] = dose: 400.0 mg/kg/injection, schedule: Q01DX001 (ip), vehicle: saline

COc1ccc(C(=O)N/N=C/c2ccco2)cc1
survivor count [1]: 6 of 6

c1ccc([P+](CCN2CCC([P+](c3ccccc3)(c3ccccc3)c3ccccc3)=N2)(c2ccccc2)c2ccccc2)cc1
survivor count (dose: 6.25 mg/kg/injection, schedule: Q04DX003 (ip), vehicle: saline): 1 of 6
survivor count (dose: 12.5 mg/kg/injection, schedule: Q04DX003 (ip), vehicle: saline): 2 of 6
survivor count (dose: 25.0 mg/kg/injection, schedule: Q04DX003 (ip), vehicle: saline): 0 of 6
survivor count (dose: 50.0 mg/kg/injection, schedule: Q04DX003 (ip), vehicle: saline): 0 of 6
survivor count [2]: 0 of 6 and 6 of 6
survivor count [3]: 6 of 6
survivor count [4]: 0 of 6

CCOC(=O)/C=C\C(=O)O.[Mn]
survivor count [5]: 3 of 6
T/C [3]: 128 % of control
survivor count [4]: 0 of 4

Oc1c(O)c(Cl)c(Cl)c(Cl)c1Cl
survivor count [2]: 0 of 6
survivor count [3]: 0 of 6
survivor count [4]: 1 of 6

O=S(=O)(Nc1nccs1)c1ccc(N(CCCl)CCCl)cc1
survivor count [6]: 3 of 3
survivor count [7]: 2 of 3

Cc1ccc(NC(=O)OC/C=C/c2ccccc2)cc1NC(=O)OC/C=C/c1ccccc1
survivor count [6]: 6 of 6
survivor count [1]: 6 of 6

Cc1cccc(C)c1NC(=S)N(C)C
survivor count (dose: 100.0 mg/kg/injection, schedule: Q01DX009 (ip), vehicle: saline): 1 of 6
survivor count [3]: 0 of 6
survivor count [4]: 0 of 6

Cc1ccc(NC(=O)Oc2ccc(-c3ccccc3)cc2)cc1NC(=O)Oc1ccc(-c2ccccc2)cc1
survivor count [5]: 6 of 6

CCCCCC(=O)c1ccc(O)cc1O
survivor count (dose: 100.0 mg/kg/injection, schedule: Q01DX009 (ip), vehicle: gum acacia): 6 of 6
survivor count (dose: 200.0 mg/kg/injection, schedule: Q01DX009 (ip), vehicle: gum acacia): 1 of 6
survivor count (dose: 400.0 mg/kg/injection, schedule: Q04DX003 (ip), vehicle: gum acacia): 0 of 6

CNC(=N)c1ccc(NC(=N)c2ccc(NC(=N)c3ccc(NC(=O)Nc4ccc(C(=N)NC)cc4)cc3)cc2)cc1
T/C (dose: 3.75 mg/kg/injection, schedule: Q01DX015 (ip), vehicle: water): 138 % of control
T/C (dose: 10.0 mg/kg/injection, schedule: Q01DX001 (ip), vehicle: water): 138 % of control
T/C (dose: 10.0 mg/kg/injection, schedule: Q01DX015 (sc), vehicle: water): 148 % of control
T/C (dose: 15.0 mg/kg/injection, schedule: Q01DX015 (ip), vehicle: water): 141 % of control
T/C (dose: 25.0 mg/kg/injection, schedule: Q01DX001 (ip), vehicle: water): 145 % of control [5 of 6 alive]
survivor count (dose: 50.0 mg/kg/injection, schedule: Q01DX001 (ip), vehicle: water): 0 of 6
survivor count (dose: 100.0 mg/kg/injection, schedule: Q01DX001 (ip), vehicle: water): 0 of 6

O=C(Nc1ccc(CCO)cc1)Nc1cc(C(F)(F)F)ccc1Cl
survivor count [1]: 1 of 6

CCOP(=O)(N1CC1(C)C)N1CC1(C)C (configuration not stated)
T/C (dose: 8.8 mg/kg/injection, schedule: Q01DX009 (ip), vehicle: saline): 143 % of control
survivor count (dose: 12.5 mg/kg/injection, schedule: Q01DX001 (ip), vehicle: other): 0 of 6
T/C (dose: 13.3 mg/kg/injection, schedule: Q01DX009 (ip), vehicle: saline): 146 % of control
T/C (dose: 35.0 mg/kg/injection, schedule: Q01DX001 (ip), vehicle: saline): 138 % of control
survivor count (dose: 53.0 mg/kg/injection, schedule: Q01DX001 (ip), vehicle: alcohol): 0 of 6
T/C (dose: 53.0 mg/kg/injection, schedule: Q01DX001 (ip), vehicle: other): 138 % of control
T/C (dose: 53.0 mg/kg/injection, schedule: Q01DX009 (ip), vehicle: saline): 143 % of control
survivor count (dose: 80.0 mg/kg/injection, schedule: Q01DX001 (ip), vehicle: alcohol): 0 of 6
T/C (dose: 80.0 mg/kg/injection, schedule: Q01DX009 (ip), vehicle: Klucel (hydroxypropylcellulose) (HPC)): 126 % of control
survivor count (dose: 120.0 mg/kg/injection, schedule: Q01DX001 (ip), vehicle: alcohol): 0 of 6
survivor count (dose: 120.0 mg/kg/injection, schedule: Q01DX009 (ip), vehicle: Klucel (hydroxypropylcellulose) (HPC)): 6 of 6
survivor count (dose: 120.0 mg/kg/injection, schedule: Q01DX009 (ip), vehicle: saline): 5 of 6
survivor count (dose: 180.0 mg/kg/injection, schedule: Q01DX001 (ip), vehicle: alcohol): 0 of 6
survivor count [8]: 6 of 6
survivor count (dose: 180.0 mg/kg/injection, schedule: Q01DX009 (ip), vehicle: saline): 0 of 6
survivor count (dose: 266.0 mg/kg/injection, schedule: Q01DX001 (ip), vehicle: saline): 3 of 6
survivor count [9]: 2 of 6
survivor count (dose: 600.0 mg/kg/injection, schedule: Q01DX001 (ip), vehicle: saline): 0 of 6
survivor count (dose: 800.0 mg/kg/injection, schedule: Q01DX001 (ip), vehicle: other): 6 of 6

NNc1ncnc2c1ccn2C1OC(CO)C(O)C1O (configuration not stated)
T/C (dose: 12.5 mg/kg/injection, schedule: Q01DX005 (ip), vehicle: saline): 128 and 134 % of control
T/C (dose: 25.0 mg/kg/injection, schedule: Q01DX005 (ip), vehicle: saline): 127 and 142 % of control
T/C (dose: 50.0 mg/kg/injection, schedule: Q01DX005 (ip), vehicle: saline): 136 and 143 % of control [4 of 6 alive]
T/C (dose: 80.0 mg/kg/injection, schedule: Q01DX001 (ip), vehicle: saline): 127 % of control
survivor count (dose: 100.0 mg/kg/injection, schedule: Q01DX005 (ip), vehicle: saline): 1 of 6
survivor count (dose: 120.0 mg/kg/injection, schedule: Q01DX001 (ip), vehicle: saline): 3 of 6
survivor count (dose: 200.0 mg/kg/injection, schedule: Q01DX001 (ip), vehicle: saline): 0 of 6
survivor count (dose: 200.0 mg/kg/injection, schedule: Q01DX005 (ip), vehicle: saline): 0 of 6
survivor count [9]: 0 of 6

CCSc1ccc2c(cc1=O)C(NC(=O)NC)CCc1cc(OC)c(OC)c(OC)c1-2 (configuration not stated)
survivor count [6]: 5 of 6
survivor count [7]: 2 of 6
survivor count [1]: 0 of 6

O=C(O)c1ccc(CBr)c(CBr)c1
survivor count (dose: 25.0 mg/kg/injection, schedule: Q04DX003 (ip), vehicle: saline with Tween-80): 6 of 6

CCOC(=O)c1[nH]cnc1/N=N/N(C)CCO
T/C [6]: 136 % of control
T/C (dose: 115.0 mg/kg/injection, schedule: Q01DX009 (ip), vehicle: saline): 145 % of control
T/C [8]: 131 % of control
T/C (dose: 187.0 mg/kg/injection, schedule: Q01DX009 (ip), vehicle: carboxymethylcellulose (CMC)): 129 % of control
T/C [7]: 128 % of control
T/C (dose: 264.0 mg/kg/injection, schedule: Q01DX009 (ip), vehicle: saline): 135 % of control
T/C (dose: 266.0 mg/kg/injection, schedule: Q01DX009 (ip), vehicle: carboxymethylcellulose (CMC)): 136 % of control
T/C (dose: 360.0 mg/kg/injection, schedule: Q01DX009 (ip), vehicle: Klucel (hydroxypropylcellulose) (HPC)): 130 % of control
T/C (dose: 400.0 mg/kg/injection, schedule: Q01DX009 (ip), vehicle: carboxymethylcellulose (CMC)): 137 % of control
T/C (dose: 400.0 mg/kg/injection, schedule: Q01DX009 (ip), vehicle: saline): 147 % of control [5 of 6 alive]
T/C (dose: 400.0 mg/kg/injection, schedule: Q04DX003 (ip), vehicle: Klucel (hydroxypropylcellulose) (HPC)): 125 % of control
T/C (dose: 600.0 mg/kg/injection, schedule: Q01DX009 (ip), vehicle: carboxymethylcellulose (CMC)): 129 % of control
